Each structure is given as a SMILES string. This is a selection; strong and weak results do not stand in their true shares. Where no call is shown, the source filed none. Results filed as inconclusive are left out. Activity calls are given as the source filed them. The call rests on the fitted dose curve; in most records, active means well fitted activation curve with a large enough effect; inconclusive means small, poorly fitted or top-dose-only effect; inactive means flat fitted curve, though single readings scatter.

Protein sequences, listed by entry. Tags and fused reporters are not part of them. Lines headed by an entry give the natural chain unless they say otherwise; changes in a name come on top.
UniProt Q8WXD0: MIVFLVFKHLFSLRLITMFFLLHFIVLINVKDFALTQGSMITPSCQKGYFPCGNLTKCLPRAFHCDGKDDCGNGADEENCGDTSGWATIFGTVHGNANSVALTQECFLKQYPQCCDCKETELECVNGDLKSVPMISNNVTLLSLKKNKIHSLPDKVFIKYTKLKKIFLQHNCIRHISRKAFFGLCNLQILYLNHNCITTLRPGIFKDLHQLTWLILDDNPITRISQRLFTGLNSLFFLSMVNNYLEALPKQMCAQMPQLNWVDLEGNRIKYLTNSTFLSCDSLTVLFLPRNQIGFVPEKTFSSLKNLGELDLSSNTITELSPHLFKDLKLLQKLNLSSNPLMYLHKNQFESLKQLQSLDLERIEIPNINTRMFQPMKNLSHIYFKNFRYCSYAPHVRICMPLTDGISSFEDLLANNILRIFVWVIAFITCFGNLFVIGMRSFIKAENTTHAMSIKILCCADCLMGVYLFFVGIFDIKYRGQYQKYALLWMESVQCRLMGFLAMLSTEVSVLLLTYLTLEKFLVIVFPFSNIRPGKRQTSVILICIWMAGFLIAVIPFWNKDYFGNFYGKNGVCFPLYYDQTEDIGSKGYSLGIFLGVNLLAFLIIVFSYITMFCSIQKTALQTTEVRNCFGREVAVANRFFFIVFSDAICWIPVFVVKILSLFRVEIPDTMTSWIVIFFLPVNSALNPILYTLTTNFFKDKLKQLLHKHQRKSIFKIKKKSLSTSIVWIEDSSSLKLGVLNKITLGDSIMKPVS

Among the data in PubChem BioAssay AID489043 (National Center for Advancing Translational Sciences (NCATS), 2010) are activation and Potency values, retold here.

The target in the assay is Relaxin receptor 2 (Homo sapiens) (UniProt Q8WXD0). The assay is described as follows: qHTS Assay for Agonists of the Relaxin Receptor RXFP1: RXFP2 Hit Validation. Further: nearly all actives have a fitted effect of over 65% in size.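 On activation: 0% = buffer only basal cAMP and 100% = 29 nM porcine relaxin.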 As to conditions: HEK293 RXFP2 cAMP TR-FRET, 30 min; activation: at 115 µM (top of the series). An excerpt:
NIH Chemical Genomics Center [NCGC] NIH Molecular Libraries Probe Production Centers Network [MLPCN] MLPCN Grant: R03 MH085705-01A1 Assay Submitter (PI): Alexander Agoulnik NCGC Assay Overview: The relaxin hormone is involved in the variety of biological functions in normal tissues and diseases. The role of relaxin is well-established in female reproduction and parturition, mammary gland and endometrial development, maintenance of myometrial quiescence during pregnancy. Relaxin signaling through its G protein-coupled receptor (GPCR) RXFP1 results in ECM remodeling through regulation of collagen deposition, cell invasiveness, proliferation and overall tissue homeostasis. […] RXFP1 activation was assayed by changes in cAMP levels as detected with a time-resolved fluorescence energy transfer (TR-FRET) cAMP detection kit. […]
NCGC Assay Protocol Summary: This is a cell-based assay for cAMP second messenger response to screen for agonists of the RXFP2 receptor. […] The cells were lysed and the cAMP levels were measured with a TR-FRET cAMP kit. […] The EC50 values were determined from concentration-response data modeled with the standard Hill equation 1536-well assay protocol for the HEK293 RXFP2 cAMP assay: (1) Add 3 ul HEK293 RXFP2 cell culture. […]
Potency means the concentration at half of the fitted maximal effect.

`COc1ccc(-n2nc(C(=O)NCC(=O)NCCCN3CCOCC3)c3ccccc3c2=O)cc1`: the activation was 47.2%.
In the case of `Cc1cc(C)n2nc(C(=O)Nc3ccc4c(c3)OCCO4)nc2n1`, the Potency was active: 6.9 µM.
